The source of these data is article doi:10.1101/2023.07.11.548599.

These are yes or no findings as the source states them, for the method shown. Binding seen in cells or lysates may run through a third protein. Sequences can lack the tags named with a protein.

The test has as its target T1, GFP-Piwi (D. melanogaster) (UniProt Q9VKM1).
T1 sequence: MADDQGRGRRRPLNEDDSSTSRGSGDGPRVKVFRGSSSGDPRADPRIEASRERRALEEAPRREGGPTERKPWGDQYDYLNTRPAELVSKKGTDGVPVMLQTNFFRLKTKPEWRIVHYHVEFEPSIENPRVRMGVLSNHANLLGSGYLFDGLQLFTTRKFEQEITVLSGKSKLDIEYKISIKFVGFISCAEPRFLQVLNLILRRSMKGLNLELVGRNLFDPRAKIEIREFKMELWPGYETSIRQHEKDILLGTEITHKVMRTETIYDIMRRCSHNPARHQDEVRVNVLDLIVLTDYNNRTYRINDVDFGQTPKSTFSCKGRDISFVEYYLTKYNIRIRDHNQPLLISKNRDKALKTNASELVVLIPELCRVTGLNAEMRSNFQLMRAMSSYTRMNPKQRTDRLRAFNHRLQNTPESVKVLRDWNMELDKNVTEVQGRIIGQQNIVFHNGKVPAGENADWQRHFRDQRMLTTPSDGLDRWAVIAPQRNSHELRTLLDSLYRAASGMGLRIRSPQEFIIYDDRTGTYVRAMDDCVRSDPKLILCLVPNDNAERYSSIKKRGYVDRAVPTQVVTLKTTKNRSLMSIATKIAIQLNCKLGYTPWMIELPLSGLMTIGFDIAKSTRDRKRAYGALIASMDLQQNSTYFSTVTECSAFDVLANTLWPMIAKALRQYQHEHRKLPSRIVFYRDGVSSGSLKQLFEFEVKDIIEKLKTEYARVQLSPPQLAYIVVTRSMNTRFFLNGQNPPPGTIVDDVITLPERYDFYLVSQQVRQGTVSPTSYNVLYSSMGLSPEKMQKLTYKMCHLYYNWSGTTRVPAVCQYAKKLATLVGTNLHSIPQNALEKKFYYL
Briefly: co-IP.

B1: D1 (protein, UniProt P22058 1-355)
chain: MEEVAVKKRGRPSKASVGGKSSTAAVAAISPGIKKRGRPAKNKGSSGGGGQRGRPPKASKIQNDEDPEDEGEEDGDGDGSGAELANNSSPSPTKGRGRPKSSGGAGSGSGDSVKTPGSAKKRKAGRPKKHQPSDSENEDDQDEDDDGNSSIEERRPVGRPSAGSVNLNISRTGRGLGRPKKRAVESNGDGEPQVPKKRGRPPQNKSGSGGSTGYVPTGRPRGRPKANAAPVEKHEDNDDDQDDENSGEEEHSSPEKTVVAPKKRGRPSLAAGKVSKEETTKPRSRPAKNIDDDADDADSADQGQHNSKKESNDEDRAVDGTPTKGDGLKWNSDGENDANDGYVSDNYNDSESVAA
Turning to B1, the binding result is reported as “no binding”.
